In publication PMC10570377, “DARPins detect the formation of hetero-tetramers of p63 and p73 in epithelial tissues and in squamous cell carcinoma” (Cell Death & Disease, 2023):
These are yes or no findings as the source states them, for the method shown. Binding seen in cells or lysates may run through a third protein. Binding calls can cover weak binding; strength is not graded here.

Chains of the proteins cited; added tags and fusions are not shown. Lines headed by an entry give the natural chain unless they say otherwise; changes in a name come on top.
UniProt O88898: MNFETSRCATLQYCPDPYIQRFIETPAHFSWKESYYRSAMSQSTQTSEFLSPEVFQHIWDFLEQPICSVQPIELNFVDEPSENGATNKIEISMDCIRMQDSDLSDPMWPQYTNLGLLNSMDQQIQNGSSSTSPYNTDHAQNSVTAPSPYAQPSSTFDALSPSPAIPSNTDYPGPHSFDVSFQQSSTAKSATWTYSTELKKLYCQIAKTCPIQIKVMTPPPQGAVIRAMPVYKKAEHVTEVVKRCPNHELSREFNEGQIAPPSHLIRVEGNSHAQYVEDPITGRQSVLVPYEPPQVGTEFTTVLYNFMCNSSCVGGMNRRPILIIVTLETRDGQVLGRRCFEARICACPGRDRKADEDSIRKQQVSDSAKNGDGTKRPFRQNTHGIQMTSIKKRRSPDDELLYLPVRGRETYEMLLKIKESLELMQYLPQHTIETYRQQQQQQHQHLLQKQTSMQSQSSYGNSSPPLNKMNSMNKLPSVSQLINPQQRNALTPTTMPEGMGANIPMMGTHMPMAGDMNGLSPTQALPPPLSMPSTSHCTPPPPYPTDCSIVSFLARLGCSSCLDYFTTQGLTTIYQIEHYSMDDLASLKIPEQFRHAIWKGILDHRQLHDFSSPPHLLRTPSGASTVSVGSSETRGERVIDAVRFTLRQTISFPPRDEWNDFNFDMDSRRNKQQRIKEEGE

T1: p73 (endogenous, mouse) (mouse (endogenous in skin and lung tumours)) (UniProt Q9JJP2)
T1 sequence: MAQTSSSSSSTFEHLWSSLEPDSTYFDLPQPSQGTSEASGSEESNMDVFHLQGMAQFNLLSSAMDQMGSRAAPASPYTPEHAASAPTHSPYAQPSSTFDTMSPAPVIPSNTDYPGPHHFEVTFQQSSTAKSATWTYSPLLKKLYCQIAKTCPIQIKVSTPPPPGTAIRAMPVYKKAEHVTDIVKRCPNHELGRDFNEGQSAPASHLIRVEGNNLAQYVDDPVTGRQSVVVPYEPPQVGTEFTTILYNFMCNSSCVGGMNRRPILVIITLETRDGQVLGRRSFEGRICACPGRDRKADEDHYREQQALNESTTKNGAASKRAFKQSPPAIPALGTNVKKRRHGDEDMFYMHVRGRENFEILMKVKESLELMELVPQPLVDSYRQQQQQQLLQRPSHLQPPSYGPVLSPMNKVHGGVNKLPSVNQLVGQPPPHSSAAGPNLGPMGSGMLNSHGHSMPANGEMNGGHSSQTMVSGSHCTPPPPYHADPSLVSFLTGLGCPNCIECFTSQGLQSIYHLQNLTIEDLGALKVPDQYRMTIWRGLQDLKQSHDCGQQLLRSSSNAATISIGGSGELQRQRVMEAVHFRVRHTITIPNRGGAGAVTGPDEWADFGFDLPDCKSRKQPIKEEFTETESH

B1: p73 (endogenous, mouse) (protein, UniProt Q9JJP2 1-631)
chain: T1 sequence

Tests used:
[1] = biological target: T1, p73 (endogenous, mouse) (mouse (endogenous in skin and lung tumours)); test: co-IP; pan-p63 or pan-p73 antibody on protein G magnetic beads; tissue lysate of mouse skin; western blot
[2] = biological target: p63 (endogenous, mouse) (mouse (endogenous in skin and lung tumours)) (UniProt O88898); test: as above

Molecule | binding [1] | binding [2]
p63 (endogenous, mouse) (from UniProt O88898-2) | binds weakly | –
B1 | – | binds
